Results deposited as PubChem BioAssay AID1159596 (NIAID, 2016).
The whole screen tested 756 reagents; this is an unselected part. 143 of them (19%) count as active. 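Active means the reporter moved past about ±1.5 in either direction; scores are per single siRNA, not per gene; peptidoglycan dose not given.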 Reagents against one gene are numbered here. No sequences are given here. Not stated in the record: the amount of reagent.

- Assay: 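Genes whose silencing alters the TNF reporter response of macrophage-like cells to peptidoglycan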 (primary screen)
- Cells: human THP1 B5 monocytic reporter cells made macrophage-like with PMA
- Knock-down reagent: single siRNA against human genes
- Time to read-out: assayed 48 to 72 hours after siRNA transfection; peptidoglycan stimulation lasted 4 hours
- Challenge: Staphylococcus aureus peptidoglycan for 4 hours; dose not given
- Measured: 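Mean over replicate screens of a robust z per siRNA from the dual luciferase TNF promoter reporter after 4 h peptidoglycan, median/MAD normalised, relative to negative controls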
- Reading the numbers: TNF reporter z-score: higher = stronger TNF promoter reporter response to peptidoglycan
- Call rule: In these data the active calls have TNF reporter z-score, replicate mean at about -1.5 or lower, or at about 1.5 or higher
- Calls: active = reporter shifted beyond cut (either direction); inactive = reporter near control level

TBKBP1 #1 → TNF reporter z-score, replicate mean: 0.311; Call: inactive
TBKBP1 #2 → TNF reporter z-score, replicate mean: 0.0689; Call: inactive
TBKBP1 #3 → TNF reporter z-score, replicate mean: -0.465; Call: inactive
TBKBP1 #4 → TNF reporter z-score, replicate mean: 0.822; Call: inactive
TBKBP1 #5 → TNF reporter z-score, replicate mean: 0.322; Call: inactive
TBKBP1 #6 → TNF reporter z-score, replicate mean: -0.823; Call: inactive
MAPK11 #1 → TNF reporter z-score, replicate mean: -0.414; Call: inactive
MAPK11 #2 → TNF reporter z-score, replicate mean: -0.628; Call: inactive
MAPK11 #3 → TNF reporter z-score, replicate mean: -0.136; Call: inactive
MAPK11 #4 → TNF reporter z-score, replicate mean: 0.0296; Call: inactive
MAPK11 #5 → TNF reporter z-score, replicate mean: 0.0829; Call: inactive
MAPK11 #6 → TNF reporter z-score, replicate mean: -0.747; Call: inactive
TANK #1 → TNF reporter z-score, replicate mean: -0.163; Call: inactive
TANK #2 → TNF reporter z-score, replicate mean: 1; Call: inactive
TANK #3 → TNF reporter z-score, replicate mean: -0.379; Call: inactive
TANK #4 → TNF reporter z-score, replicate mean: 0.717; Call: inactive
TANK #5 → TNF reporter z-score, replicate mean: -1.9; Call: active
TANK #6 → TNF reporter z-score, replicate mean: -0.277; Call: inactive
CCL3 #1 → TNF reporter z-score, replicate mean: -2.05; Call: active
CCL3 #2 → TNF reporter z-score, replicate mean: 0.164; Call: inactive
CCL3 #3 → TNF reporter z-score, replicate mean: -0.0473; Call: inactive
CCL3 #4 → TNF reporter z-score, replicate mean: 0.042; Call: inactive
CCL3 #5 → TNF reporter z-score, replicate mean: 0.188; Call: inactive
CCL3 #6 → TNF reporter z-score, replicate mean: -0.676; Call: inactive

Hits (from the list above):
TANK #5 → TNF reporter z-score, replicate mean: -1.9; Call: active
CCL3 #1 → TNF reporter z-score, replicate mean: -2.05; Call: active

Next results follow.
IL6 #1 → TNF reporter z-score, replicate mean: 0.186; Call: inactive
IL6 #2 → TNF reporter z-score, replicate mean: -0.954; Call: inactive
IL6 #3 → TNF reporter z-score, replicate mean: -1.84; Call: active
IL6 #4 → TNF reporter z-score, replicate mean: -0.517; Call: inactive
IL6 #5 → TNF reporter z-score, replicate mean: -0.525; Call: inactive
IL6 #6 → TNF reporter z-score, replicate mean: 0.4; Call: inactive
IKBKE #1 → TNF reporter z-score, replicate mean: 1.51; Call: active
IKBKE #2 → TNF reporter z-score, replicate mean: -1.43; Call: inactive
IKBKE #3 → TNF reporter z-score, replicate mean: 0.199; Call: inactive
IKBKE #4 → TNF reporter z-score, replicate mean: 2.53; Call: active
IKBKE #5 → TNF reporter z-score, replicate mean: -0.855; Call: inactive
IKBKE #6 → TNF reporter z-score, replicate mean: -0.804; Call: inactive
